Results deposited as PubChem BioAssay AID1259331 (Drosophila RNAi Screening Center, 2017).
Assay: 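Knock-downs that alter ATP level after a high zinc chloride dose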 (primary screen). Cell system: Drosophila S2R+ cells. Knock-down reagent: long dsRNA against Drosophila genes. Duration: 5 days (4 days knock-down, then 1 day zinc). Treatment: zinc chloride at 15 mM final level for 1 day. Detection: 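Total cellular ATP measured by luciferase luminescence as a viability proxy, turned into Z scores from three plate copies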. Reading the numbers: mean Z score: higher = more ATP than other wells, better survival under zinc; ATP luminescence: higher = more ATP, more viable cells. Rule for the call: 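Hit when the absolute Z score is greater than 1.5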. Meaning of the calls: active = hit, ATP up or down; inactive = not a hit.
The whole screen tested about 3,100 reagents; below is a random part of them. 126 of all reagents (4.1%) count as active. 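Calls are per reagent; zinc was so toxic that few knock-downs lowered ATP further, so most hits raise ATP.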 Raw values are not corrected between plates. The numbers tell different reagents against one gene apart. Names joined by + are all predicted targets of the reagent. Not stated in the record: the amount of reagent.

no.	predicted target	reagent	mean Z score	ATP luminescence, replicate 1	ATP luminescence, replicate 2	outcome
1	N (Notch)	1	-0.674	50748	59089	inactive
2	N (Notch)	2	0.76	58386	55996	inactive
3	CapaR (Capability receptor)	1	-0.0548	54524	55788	inactive
4	CapaR (Capability receptor)	2	0.31	62215	69430	inactive
5	Tsp74F (Tetraspanin 74F)	1	-0.0778	77373	57974	inactive
6	CG7255	1	-0.361	31690	32599	inactive
7	Or94b (Odorant receptor 94b)	1	-0.131	37605	54990	inactive
8	Or94b (Odorant receptor 94b)	2	0.196	65914	57322	inactive
9	CG31792	1	-0.291	44288	37947	inactive
10	CG31792	2	-0.125	58664	62210	inactive
11	anne (anne boleyn)	1	4.28	1.58e5	1.27e5	active
12	anne (anne boleyn)	2	2.86	83563	80942	active
13	Ptp10D (Protein tyrosine phosphatase 10D)	1	0.696	74133	81110	inactive
14	Ptp10D (Protein tyrosine phosphatase 10D)	2	-0.442	41753	38325	inactive
15	Ptp10D (Protein tyrosine phosphatase 10D)	3	-0.596	43059	40149	inactive
16	Npl4 (Nuclear protein localization 4)	1	4.5	92569	1.09e5	active
17	Npl4 (Nuclear protein localization 4)	2	0.717	44445	69635	inactive
18	hid (head involution defective)	1	-0.783	45508	40331	inactive
19	hid (head involution defective)	2	-0.435	58248	54562	inactive

Laid out differently: results already given.
predicted target	reagent	mean Z score	ATP luminescence, replicate 1	ATP luminescence, replicate 2	outcome
Or94b (Odorant receptor 94b)	2	0.196	65914	57322	inactive
CG31792	1	-0.291	44288	37947	inactive
CG31792	2	-0.125	58664	62210	inactive

The listing continues:
no.	predicted target	reagent	mean Z score	ATP luminescence, replicate 1	ATP luminescence, replicate 2	outcome
20	Msp300 (Muscle-specific protein 300 kDa)	1	-0.0986	39079	43897	inactive
21	Msp300 (Muscle-specific protein 300 kDa)	2	-0.0953	44497	40911	inactive
22	Msp300 (Muscle-specific protein 300 kDa)	3	-0.298	50292	53841	inactive
23	Msp300 (Muscle-specific protein 300 kDa)	4	0.347	53807	35805	inactive
24	CG16781	1	-0.514	56791	58265	inactive
25	CG16781	2	-0.385	53773	51407	inactive
26	CG34396	1	1.54	69230	64034	active
27	CG34396	2	-0.515	34519	46520	inactive
28	CG34396	3	-0.321	66095	46623	inactive
29	Tspo + rempA	1	-0.424	49293	51233	inactive
30	Oatp58Da (Organic anion transporting polypeptide 58Da)	1	-0.465	44964	38685	inactive
31	Oatp58Da (Organic anion transporting polypeptide 58Da)	2	0.172	57511	59346	inactive
32	Gfrl (Glial cell line-derived neurotrophic family receptor-like)	1	0.0109	40485	59530	inactive
33	Gfrl (Glial cell line-derived neurotrophic family receptor-like)	2	-0.28	49934	52315	inactive
34	Nha2 (Na[+]/H[+] hydrogen antiporter 2)	1	0.275	34587	61146	inactive
35	Nha2 (Na[+]/H[+] hydrogen antiporter 2)	2	0.191	45988	44325	inactive
36	CG42514 + CG43373	1	0.367	60049	64662	inactive
37	sip3 (septin interacting protein 3)	1	-0.379	54647	56482	inactive
38	sip3 (septin interacting protein 3)	2	-0.255	49435	56019	inactive
39	Nmdar1 (NMDA receptor 1)	1	0.48	74626	73392	inactive
40	Nmdar1 (NMDA receptor 1)	2	0.16	76187	65074	inactive
41	Nmdar1 (NMDA receptor 1)	3	-0.568	51372	46537	inactive
42	Ncc69 (sodium chloride cotransporter 69)	1	-0.406	30936	27799	inactive
43	Ncc69 (sodium chloride cotransporter 69)	2	-0.00568	56602	66095	inactive
44	AstC-R1 (Allatostatin C receptor 1)	1	-0.121	75192	59552	inactive
45	AstC-R1 (Allatostatin C receptor 1)	2	0.0104	63890	59174	inactive
46	Pen (Pendulin)	1	0.278	52675	68075	inactive
47	Pen (Pendulin)	2	-0.00188	47480	47223	inactive
